Measurements reported in publication PMC5750232, “RAD54 N-terminal domain is a DNA sensor that couples ATP hydrolysis with branch migration of Holliday junctions” (Nature Communications, 2018).
Numbering of substitutions follows the chain as printed. A weaker result is weaker than the reference pair of the same experiment. Protein sequences can lack the tags named with them.

How the values were obtained:
[1] = target: T1, RAD54 1-142 33AAAA36 R33A,K34A,R35A,K36A (human) (UniProt Q92698); test: EMSA; details: only smearing at 0.5 uM protein, 5 mM Mg2+, 2 mM ATP, 25 mM Tris-acetate pH 7.5, 5 mM Mg acetate, 100 ug/ml BSA, 2 mM DTT, 10% glycerol, 4 C, 45 min, 30 nM PX junction, 6% native PAGE in 0.25x TBE, recombinant protein, residues 1-142, protein details: Sumo-His, cleaved, label: 32P (unlabeled as competitor), folded or branched DNA
T1 sequence (looked up): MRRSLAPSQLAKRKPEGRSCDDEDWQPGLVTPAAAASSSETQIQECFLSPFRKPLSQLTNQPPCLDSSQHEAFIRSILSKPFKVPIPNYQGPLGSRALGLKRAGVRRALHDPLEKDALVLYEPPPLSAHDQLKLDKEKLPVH

RAD54 1-142 S49E (human) = target: T2, RAD54 1-142 S49E (human) (UniProt Q92698); test: EMSA; details: large complexes reduced, small complexes unaffected, 5 mM Mg2+, 2 mM ATP, 25 mM Tris-acetate pH 7.5, 5 mM Mg acetate, 100 ug/ml BSA, 2 mM DTT, 10% glycerol, 4 C, 45 min, 30 nM PX junction, 6% native PAGE in 0.25x TBE, recombinant protein, residues 1-142, protein details: Sumo-His, cleaved, label: 32P (unlabeled as competitor), folded or branched DNA
T2 sequence (looked up): T1 sequence (looked up) with A33R, A34K, A35R, A36K, S49E

Sequence: GACGCTGCCGAATTCTACCAGTGCCTTGCTAGGACATCTTTGCCCACCTGCAGGTTCACCC / TGGGTGAACCTGCAGGTGGGCAAAGATGTCCTAGCAATGTAATCGTCAAGCTTTATGCCGTT / CAACGGCATAAAGCTTGACGATTACATTGCTAGGACATGCTGTCTAGAGGATCCGACTATCGA / TCGATAGTCGGATCCTCTAGACAGC [non-mobile PX junction (174/175/176/181)]
- binding result [1]: binds more weakly
- binding result (RAD54 1-142 S49E (human)): binds more weakly
